# Test results from PubChem BioAssay AID492963 (The Scripps Research Institute Molecular Screening Center, 2010).
# By UniProt entry, the sequences of proteins in these tests, tags left out.
# UniProt O43613, whole entry, looked up: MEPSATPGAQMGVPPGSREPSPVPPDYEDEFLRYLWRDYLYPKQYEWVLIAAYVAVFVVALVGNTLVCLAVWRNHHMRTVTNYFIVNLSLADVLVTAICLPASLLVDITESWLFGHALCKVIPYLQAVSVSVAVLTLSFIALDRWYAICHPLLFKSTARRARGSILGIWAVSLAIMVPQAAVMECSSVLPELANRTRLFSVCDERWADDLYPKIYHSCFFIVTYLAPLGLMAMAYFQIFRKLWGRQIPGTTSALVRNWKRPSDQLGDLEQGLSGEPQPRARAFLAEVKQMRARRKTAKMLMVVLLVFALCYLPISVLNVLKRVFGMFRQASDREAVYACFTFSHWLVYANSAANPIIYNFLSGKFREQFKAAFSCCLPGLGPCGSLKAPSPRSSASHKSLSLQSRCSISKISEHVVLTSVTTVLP
# Screen size: about 1,100 compounds; about 420 (38%) were called active. No stated cut-off is given here; in the data, active means inhibition above about 29%; inactive means the rest. This is a selection; strong and weak results do not stand in their true shares.
# Target: Orexin/Hypocretin receptor type 1 (Homo sapiens) (UniProt O43613)
# Assay: HCRTR1 blockers, calcium flux retest – fluorescence, CHO/OX1R cells, Fluo-8 calcium, orexin A, confirmation (AID 492963);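 further: 0% = agonist challenge alone and 100% = reference antagonist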
# Details: orexin A calcium Fluo-8 fluorescence, at 5 µM, active compounds read high
row,Compound,inhibition
1,CC(C(=O)Nc1ccc(Cl)cc1Cl)N1CC=C(c2ccccc2)CC1 (stereo unspecified),inactive: -25.8%
